These results are taken from publication PMC2852844, “Anti-Parasitic Compounds from Streptomyces sp. Strains Isolated from Mediterranean Sponges” (Marine Drugs, 2010).

The data set can be described thus: in vitro. To be noted: mouse.

Each structure is given as a SMILES string.

Turning to `CN[C@@H]1C[C@H]2O[C@@](C)([C@@H]1OC)n1c3ccccc3c3c4c(c5c6ccccc6n2c5c31)C(=O)NC4` [staurosporine], the IC50 is under 0.13 µM.
